# At least one compound was matched to its structure with a doubt left.
# Target: PCP receptors
# Assay type: binding
# Settings: 1 nM 3H-TCP, whole rat brain membranes, 1 hour incubation; value ± SEM; read-out: Ki apparent
smiles,measurement,value
"c1csc(C2(N3CCCCC3)CCCCC2)c1 [TCP, reference compound]",Ki,20 ± 6 nM

# — EP0346791B1, “1,2-diarylethylamines for treatment of neurotoxic injury” (priority 1988, dated 1989)
